Inconclusive means that the source gave no clear call. Such entries were picked first, then a sample of the others. A potency beside an inconclusive call is a rough fit, not a confirmed value. Active and inactive are the calls of the source. The call rests on the fitted dose curve; in most records, active means well fitted cell-killing curve with a large enough effect; inconclusive means small, poorly fitted or top-dose-only effect, or effect the other way; inactive means no such curve, though single readings can be large or run the other way.
Assay: Quantitative High-Throughput drug screen in 47 multiple myeloma cell lines against the NCATS MIPE library collection: OCIMY7_PLB cell viability assay (AID 1918987); further: nearly all actives have a fitted effect of over 65% in size
Conditions: OCI-MY7 myeloma viability, CellTiter-Glo ATP, 48 h; viability (% of DMSO): at 45.8 µM (top of the series)
Method in brief: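 ATP-based luminescence (CellTiter-Glo, 5 min RT incubation) quantified surviving cells following two days' treatment with MIPE 4.0 agents at 37 °C, 5% CO2.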
Potency means the concentration at half of the fitted maximal effect.

SMILES	Potency	viability (% of DMSO)
CCOC(CN1C(=O)[C@](CC(=O)Nc2ccc(C)cc2)(NC(=O)Nc2ccc(C)cc2)c2ccccc21)OCC	inconclusive: 26.4 µM [cytotoxic, partial curve, poor fit]	–
COC1CCC(N(C(=O)C2CCC(C)CC2)c2cc(C3=CCCCC3)sc2C(=O)O)CC1 (stereo unspecified)	inconclusive: 37.2 µM [cytotoxic, single point]	–
Cc1onc(-c2ccccc2)c1C(=O)N[C@@H]1C(=O)N2[C@@H](C(=O)O)C(C)(C)S[C@@H]12	inactive	–
NC(=O)c1ncn([C@@H]2O[C@H](CO)[C@@H](O)[C@@H]2O)c1N	inconclusive: 0.059 µM [rising, full curve, poor fit]	–
CO[C@H]1/C=C\O[C@@]2(C)Oc3c(C)c(O)c4c(O)c(c5c(nc6cc(C)ccn65)c4c3C2=O)NC(=O)C(C)=CC=C[C@H](C)[C@H](O)[C@@H](C)[C@@H](O)[C@@H](C)[C@H](OC(C)=O)[C@H]1C	inconclusive: 37.2 µM [cytotoxic, partial curve, poor fit]	–
N#Cc1cc(NC(=O)Nc2nnc(-c3ccncc3)s2)ccc1-c1cn[nH]c1	inconclusive: 37.2 µM [cytotoxic, partial curve, poor fit]	–
CN(C)c1ccc(O)c2c1C[C@H]1C[C@H]3[C@H](N(C)C)C(=O)C(C(N)=O)=C(O)[C@@]3(O)C(=O)C1=C2O	active: 10.5 µM	–
C=C[C@@H]1CN2CCC1C[C@@H]2C(O)c1ccnc2ccc(OC)cc12 (stereo partly specified)	inconclusive: 1.05 µM [cytotoxic, full curve, poor fit]	–
CCOC(=O)N[C@@H]1CC[C@@H]2[C@@H](C1)C[C@H]1C(=O)O[C@H](C)[C@H]1[C@@H]2C=Cc1ccc(-c2cccc(F)c2)cn1	inconclusive: 14.8 µM [cytotoxic, partial curve, poor fit]	–
CC[C@H](C=C[C@@H](C)[C@H]1CC[C@H]2[C@@H]3CC=C4C[C@@H](O)CC[C@]4(C)[C@@H]3CC[C@]12C)C(C)C	inconclusive: 0.911 µM [cytotoxic, partial curve, poor fit]	–
N=C(N=C(N)N)N1CCOCC1	inconclusive: 29.6 µM [cytotoxic, partial curve, poor fit]	–
O=C(NC1CCOCC1)c1ccc(-c2cc(-c3cn[nH]c3-c3ccccn3)ccn2)cc1	inactive	–
N[C@@H](Cc1cc(I)c(Oc2cc(I)c(O)c(I)c2)c(I)c1)C(=O)O	inactive	–
CCC(=O)N[C@H]1CC[C@H](C(=O)N(C)c2ccc(-c3nc4ccccc4o3)cc2)C1	active: 8.33 µM	–
COc1ccccc1OCCNCC(O)COc1cccc2[nH]c3ccccc3c12 (stereo unspecified)	–	inconclusive: 106% [cytotoxic]
CC1(C)CCC(C)(C)c2cc(NC(=O)c3ccc(C(=O)O)cc3)ccc21	inconclusive: 10.5 µM [cytotoxic, full curve, poor fit]	–

Record cards (already shown). Values in the order: Potency | viability (% of DMSO)
CCC(=O)N[C@H]1CC[C@H](C(=O)N(C)c2ccc(-c3nc4ccccc4o3)cc2)C1 as listed: active: 8.33 µM | –
N=C(N=C(N)N)N1CCOCC1 as listed: inconclusive: 29.6 µM [cytotoxic, partial curve, poor fit] | –

(further entries)

SMILES	Potency	viability (% of DMSO)
CC[C@H]1OC(=O)[C@H](C)[C@@H](O[C@H]2C[C@@](C)(OC)[C@@H](O)[C@H](C)O2)[C@H](C)[C@@H](O[C@@H]2O[C@H](C)C[C@H](N(C)C)[C@@H]2O)[C@](C)(OC)C[C@@H](C)C(=O)[C@H](C)[C@@H](O)[C@]1(C)O	inactive	–
CCCCCCCCCC(=O)N[C@@H](Cc1c[nH]c2ccccc12)C(=O)N[C@H](CC(N)=O)C(=O)N[C@@H](CC(=O)O)C(=O)N[C@@H]1C(=O)NCC(=O)N[C@@H](CCCN)C(=O)N[C@@H](CC(=O)O)C(=O)N[C@H](C)C(=O)N[C@@H](CC(=O)O)C(=O)NCC(=O)N[C@H](CO)C(=O)N[C@@H]([C@@H](C)CC(=O)O)C(=O)N[C@@H](CC(=O)c2ccccc2N)C(=O)O[C@@H]1C	inconclusive: 0.001 µM	–
CCOC(=O)Nc1ccc(NCc2ccc(F)cc2)nc1N	inconclusive: 0.0418 µM [cytotoxic, full curve, poor fit]	–
CCn1cc(C(=O)O)c(=O)c2cc(F)c(N3CCNCC3)nc21	inconclusive: 0.0019 µM [rising, full curve, poor fit]	–
CCC[C@@H](NC(=O)[C@@H]1[C@H]2CCC[C@@H]2CN1C(=O)[C@@H](NC(=O)[C@@H](NC(=O)c1cnccn1)C1CCCCC1)C(C)(C)C)C(=O)C(=O)NC1CC1	inconclusive: 0.001 µM [cytotoxic]	–
CNc1nc(Nc2ccc(C(=O)N3CCOCC3)cc2OC)ncc1Cl	inactive	–
CC(=O)O[C@]1(C(C)=O)CC[C@H]2[C@@H]3C=C(Cl)C4=CC(=O)[C@@H]5C[C@H]5[C@]4(C)[C@@H]3CC[C@@]21C	active: 9.35 µM	–
CCN(CC)CCOc1ccc(C(=C(Cl)c2ccccc2)c2ccccc2)cc1	inconclusive: 0.0066 µM [rising, full curve, poor fit]	–
O=c1[nH]c(=O)n(C2CCCO2)cc1F (stereo unspecified)	inconclusive: 0.0021 µM [rising, full curve, poor fit]	–
O=C(O)c1ccc(-c2cc3cccnc3c(-c3ccc4nonc4c3)n2)cc1	inconclusive: 26.4 µM [cytotoxic, partial curve, poor fit]	–
CN[C@@H](C)C(=O)N[C@H]1CN(C(=O)CC(C)C)CC[C@H]2CC[C@@H](C(=O)NC(c3ccccc3)c3ccccc3)N2C1=O	active: 10.5 µM	–
CN(C)c1ccc(C2Nc3ccc4ccccc4c3C3=C2C(=O)CC(C)(C)C3)cc1Br (stereo unspecified)	active: 0.935 µM	–
OC[C@H]1O[C@@H](Oc2cc(O)cc(C=Cc3ccc(O)cc3)c2)[C@H](O)[C@@H](O)[C@H]1O	inconclusive: 37.2 µM [cytotoxic, partial curve, poor fit]	–
CN(C)CCOC(c1ccccc1)c1ccccc1	active: 18.7 µM	–
CN(CCOc1ccc(CC2SC(=O)NC2=O)cc1)c1ccccn1 (stereo unspecified)	inconclusive: 11.8 µM [rising, full curve, poor fit]	–
